Consider 1 molecule from patent publication US20170073410A1.

No constants are given. Whether binding was seen depends on the method and setting. In cells and extracts the contact can be indirect. Some entries that bind do so weakly or less than the wild type.

In this test the target is T1, IL12a (p35 subunit of Interleukin 12), mouse (mouse) (UniProt P43431).
T1 sequence (looked up): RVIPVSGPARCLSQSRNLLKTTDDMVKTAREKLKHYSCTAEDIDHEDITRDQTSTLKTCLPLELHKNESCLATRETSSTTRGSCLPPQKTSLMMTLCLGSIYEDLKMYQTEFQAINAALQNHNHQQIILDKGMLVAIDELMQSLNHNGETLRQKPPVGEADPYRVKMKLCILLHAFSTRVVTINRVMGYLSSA
The test is described as follows: co-immunoprecipitation: IP with anti-IL12a (p35) mAb, SDS-PAGE, blot with anti-EBI3 mAb.

B1: Epstein-Barr virus-induced gene 3 (EBI3) product, mouse (ligand, UniProt O35228 19-228, looked up)
chain: YTETALVALSQPRVQCHASRYPVAVDCSWTPLQAPNSTRSTSFIATYRLGVATQQQSQPCLQRSPQASRCTIPDVHLFSTVPYMLNVTAVHPGGASSSLLAFVAERIIKPDPPEGVRLRTAGQRLQVLWHPPASWPFPDIFSLKYRLRYRRRGASHFRQVGPIEATTFTLRNSKPHAKYCIQVSAQDLTDYGKPSDWSLPGQVESAPHKP
Turning to B1, the binding result is given as “binds”.
